PubChem BioAssay AID1259275, Sanger Institute – 2017

Aim: 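Knock-downs that cut viability on their own or combined with BYL719, cetuximab or trametinib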 (primary screen)
System: COLO320HSR human colorectal cancer cells
Reagents: siRNA pool against human genes
Conditions: anchor drug added one day after transfection: BYL719 at 1 µM, cetuximab at 5 µg/ml or trametinib at 10 nM; DMSO as vehicle arm
Measurement: 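Viability averaged over replicates as a fraction of the non-targeting pool, a robust z-score for knock-down alone, and synergy scores with BYL719 (1 µM), cetuximab (5 µg/ml) or trametinib (10 nM)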
Direction: robust z-score, siRNA alone: higher = more viable cells; strongly negative means essential; viability, knock-down alone (DMSO): higher = more viable cells; synergy score with BYL719 and synergy score with cetuximab and synergy score with trametinib: higher = stronger combined killing with drug
Hit rule: 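Essential means the knock-down by itself gives a robust z-score lower than -3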
Calls: active = essential (siRNA alone); inactive = no change (siRNA alone)
The deposit covers 794 reagents; below is a part drawn at random. In the full data, 13 (1.6%) were called active. 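Calls mark knock-downs lethal by themselves, not drug synergy; drugs went in a day after transfection, with DMSO as vehicle.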 Entries without a mark were called inactive. Viability is capped at 1. The record does not give: the amount of reagent, the time to read-out.

gene symbol | robust z-score, siRNA alone | viability, knock-down alone (DMSO) (fraction of control) | synergy score with BYL719 | synergy score with cetuximab | synergy score with trametinib
PDGFRB (GeneID 5159) | 0.227 | 0.955 | -0.113 | -0.13 | -0.0194
RSKR (GeneID 124923) | 0.202 | 0.953 | 0.0201 | -0.0625 | -0.0114
MAPK1 (GeneID 5594) | -0.271 | 0.91 | -0.0946 | -0.112 | -0.0787
FOXP1 (GeneID 27086) | -2.26 | 0.731 | -0.126 | -0.241 | -0.0435
RYK (GeneID 6259) | 0.726 | 1 | -0.242 | -0.0893 | -0.0259
CALM2 (GeneID 805) | 0.726 | 1 | -0.104 | -0.0893 | -0.024
CAD (GeneID 790) | 0.625 | 0.991 | 0.0661 | 0.0488 | -0.0349
PRKDC (GeneID 5591) | -0.318 | 0.906 | -0.0842 | -0.175 | -0.0162
CERT1 (GeneID 10087) | 0.726 | 1 | -0.0967 | -0.0691 | -0.0259
MPP1 (GeneID 4354) | 0.726 | 1 | -0.0519 | -0.0893 | -0.0259
STK11 (GeneID 6794) | -0.818 | 0.861 | -0.175 | -0.216 | -0.109
NEK1 (GeneID 4750) | -1.87 | 0.766 | -0.129 | -0.211 | -0.151
TAOK1 (GeneID 57551) | -0.42 | 0.897 | -0.254 | -0.177 | -0.0453
NTRK2 (GeneID 4915) | -0.0434 | 0.931 | -0.292 | -0.153 | -0.0936
FN3KRP (GeneID 79672) | 0.726 | 1 | -0.106 | -0.0854 | -0.0259
KDR (GeneID 3791) | 0.726 | 1 | -0.00471 | -0.0893 | -0.0259
ELF3 (GeneID 1999) | -2.59 | 0.701 | -0.0867 | -0.0682 | -0.03
MST1R (GeneID 4486) | -1.64 | 0.786 | -0.0899 | -0.103 | -0.152
GUCY2D (GeneID 3000) | -8.23 (active) | 0.192 | -0.0838 | -0.0417 | -0.0784
TAF1 (GeneID 6872) | 0.726 | 1 | 0.0228 | -0.0893 | -0.0259
MINK1 (GeneID 50488) | -0.212 | 0.915 | -0.087 | -0.166 | -0.0809
PRKAB1 (GeneID 5564) | 0.306 | 0.962 | -0.0404 | -0.00915 | -0.0295
RAF1 (GeneID 5894) | 0.726 | 1 | -0.203 | -0.0465 | -0.0259
DGUOK (GeneID 1716) | 0.726 | 1 | -0.198 | -0.0893 | -0.0259
GSK3A (GeneID 2931) | -0.41 | 0.897 | -0.147 | -0.136 | -0.0693
CIT (GeneID 11113) | 0.181 | 0.951 | -0.0343 | -0.0199 | 0.0146
PCK2 (GeneID 5106) | 0.584 | 0.987 | -0.0539 | -0.101 | -0.0385
DGKH (GeneID 160851) | 0.677 | 0.996 | 0.0314 | -0.0344 | 0.0198
MED12 (GeneID 9968) | -1.97 | 0.757 | -0.0962 | -0.205 | -0.137
BRD2 (GeneID 6046) | 0.726 | 1 | -0.146 | -0.0893 | -0.0259
STK17B (GeneID 9262) | 0.726 | 1 | -0.0446 | -0.0631 | -0.0259
KRAS (GeneID 3845) | 0.493 | 0.979 | -0.131 | -0.108 | -0.0464
RTN4 (GeneID 57142) | 0.726 | 1 | -0.257 | -0.0893 | -0.0259
MPP3 (GeneID 4356) | -0.373 | 0.901 | -0.068 | -0.0924 | -0.0105
WIPF1 (GeneID 7456) | -1.97 | 0.757 | -0.0156 | -0.205 | -0.102
ACVR1C (GeneID 130399) | -0.408 | 0.898 | -0.253 | -0.183 | -0.0765
PDGFRL (GeneID 5157) | 0.726 | 1 | 0.0382 | -0.0893 | -0.0259
RPS6KB1 (GeneID 6198) | -0.971 | 0.847 | -0.158 | -0.179 | -0.06
AKT3 (GeneID 10000) | -0.475 | 0.892 | -0.226 | -0.188 | -0.0189
PANK2 (GeneID 80025) | 0.373 | 0.968 | -0.227 | -0.118 | 0.0406
ZC3H11A (GeneID 9877) | 0.726 | 1 | -0.0937 | -0.0267 | 0.00757
NTN4 (GeneID 59277) | 0.726 | 1 | -0.126 | -0.0893 | -0.0259
PRKAB2 (GeneID 5565) | 0.156 | 0.949 | 0.018 | 0.0426 | 0.0851
FLT3 (GeneID 2322) | 0.726 | 1 | -0.187 | -0.0893 | -0.0259
VRK1 (GeneID 7443) | -0.52 | 0.888 | -0.106 | -0.115 | 0.00984
PGK2 (GeneID 5232) | 0.0651 | 0.94 | -0.145 | -0.144 | -0.0841
CAMK2D (GeneID 817) | 0.726 | 1 | -0.112 | -0.0893 | -0.0259
SGK2 (GeneID 10110) | -1.25 | 0.822 | -0.259 | -0.136 | -0.0584
PANK4 (GeneID 55229) | 0.571 | 0.986 | 0.0219 | -0.102 | 0.124
PRP4K (GeneID 8899) | -0.673 | 0.874 | -0.153 | -0.204 | 0.00793
